{"source": "PubChem BioAssay AID540256", "about": "(National Center for Advancing Translational Sciences (NCATS), 2011)", "note": "Values joined by “and” are separate entries in the source; they are usually repeats but may differ in a detail not shown here. Equal values may be shown once. The campaign covered roughly 300,000 compounds. About 3,700 (1.2%) were called active. The inconclusive results got no clear call from the source; some entries with a clear call stand among them for comparison. The call rests on the fitted dose curve; tested in HEK293 cells. Potencies beside an inconclusive call are fits to weak or partial responses and may not hold up. On the % scale 0 is the no-effect control and ±100 the full control effect; potency means the concentration at half of the fitted maximal effect.", "data": [{"assay": "qHTS for Inhibitors of binding or entry into cells for Lassa Virus; further: nearly all actives have a fitted effect of over 50% in size", "details": "Lassa virus pseudotype entry inhibition, cell reporter; activity change, negative = inhibition: at 37.9 µM (top of the series) unless noted", "values": [{"smiles": "COc1ccc(-c2nnc(-c3cccnc3)o2)cc1", "activity change, negative = inhibition": "inactive: -19.1%"}, {"smiles": "CN(C)C(=O)c1ccc(NC(=O)c2cccc(S(=O)(=O)N3CCCc4ccccc43)c2)cc1", "Potency": "inconclusive: 10 µM [inhibitor, partial curve, poor fit]"}, {"smiles": "CCc1ccc(Nc2ccc(C(N)=O)cc2[N+](=O)[O-])cc1", "activity change, negative = inhibition": "inactive: 0.0371%"}, {"smiles": "OC(CNC1CCCCCC1)COc1cccc2ccccc12", "note": "(stereo not given)", "Potency": "inconclusive: 35.5 µM [inhibitor, partial curve, poor fit]"}, {"smiles": "CCc1cccc(CC)c1NC(=O)CCCSc1nc2ccccc2s1", "activity change, negative = inhibition": "inactive: -13.8%"}, {"smiles": "CCOC(=O)c1noc2nc(C)n(CC(=O)Nc3cccc(OC)c3)c(=O)c12", "Potency": "inconclusive: 22.4 µM [activator, single point]"}, {"smiles": "CN(C)CC(CCC(CN(C)C)C(=O)c1ccccc1)C(=O)c1ccccc1", "note": "(stereo not given)", "activity change, negative = inhibition": "inactive: -30.5%"}, {"smiles": "Cc1ccccc1N(C(=O)c1snc(C(N)=O)c1N)C(C(=O)NC1CCCC1)c1ccco1", "note": "(stereo not given)", "Potency": "inconclusive: 35.5 µM [inhibitor, partial curve, poor fit]"}, {"smiles": "Cc1ccc(N(CC(=O)N2CCN(c3cc(C)ccc3C)CC2)S(=O)(=O)c2c(C)nn(C)c2C)cc1", "activity change, negative = inhibition": "inactive: -26.3% [at 46.1 µM]"}, {"smiles": "CN(CC(=O)Nc1ccc(F)cc1)C(=O)CSc1nnc(Cc2ccccc2)o1", "activity change, negative = inhibition": "inactive: 2%"}, {"smiles": "O=C(N/N=C/c1ccc(Cl)cc1Cl)Nc1ccccc1", "activity change, negative = inhibition": "inactive: -5.75%"}, {"smiles": "Cc1cc(C)c2nc(SCC(=O)N3CC(=O)Nc4ccccc43)c(C#N)cc2c1", "Potency": "inconclusive: 7.08 µM [inhibitor, partial curve]"}, {"smiles": "CC(=O)Nc1ccc(C(=O)CSc2nnnn2C)cc1", "activity change, negative = inhibition": "inactive: 19.4%"}, {"smiles": "CC(=O)c1cccc(NC(=O)CCCSc2ccccc2)c1", "Potency": "inconclusive: 11.2 µM [inhibitor, partial curve, poor fit]"}, {"smiles": "CC(C)[C@H](NC(=O)OC(C)(C)C)c1nnc(SCc2cccc(F)c2)o1", "Potency": "inconclusive: 8.2 µM [inhibitor, partial curve, poor fit]"}, {"smiles": "CCn1cc2c(n1)-c1c(oc(C(=O)Nc3ccc(Br)cc3F)c1C)CC2", "activity change, negative = inhibition": "inactive: -24% [at 46.1 µM]"}, {"smiles": "O=[N+]([O-])c1nn(-c2ccccc2)n(O)c1=NC1CCN(Cc2ccccc2)CC1", "Potency": "inconclusive: 7.94 µM [inhibitor, partial curve, poor fit]"}, {"smiles": "C/C(=N\\NC(N)=S)C12CC3CC(CC(C3)C1)C2", "Potency": "inconclusive: 8.2 µM [inhibitor, partial curve]"}, {"smiles": "CSC(=S)NCc1cccnc1", "Potency": "inconclusive: 14.1 µM [inhibitor, partial curve, poor fit]"}, {"smiles": "CC(=O)c1cccc(NC(=O)NC2CCCCC2)c1", "Potency": "inconclusive: 13 µM [inhibitor, partial curve, poor fit]"}, {"smiles": "CCOC(=O)c1cc2c(nc1N)CC(C)(CC)OC2", "note": "(stereo not given)", "Potency": "inconclusive: 11.2 µM [activator, partial curve]"}, {"smiles": "O=C(Nc1cccc([N+](=O)[O-])c1)c1ccc(CN2CCOCC2)cc1", "Potency": "inconclusive: 35.5 µM [inhibitor, single point]"}, {"smiles": "Cc1ccc(OCCn2cnc3c2c(=O)n(C)c(=O)n3C)cc1", "activity change, negative = inhibition": "inactive: -13.6%"}, {"smiles": "CC(C)c1cnc2c(c1SCC(=O)NC(C)(C)C)c(=O)n(C)c(=O)n2C", "activity change, negative = inhibition": "inactive: 11.6% [at 46.1 µM]"}, {"smiles": "Clc1cc(Cl)c2nc(N3CCCCC3)sc2c1", "Potency": "inconclusive: 8.2 µM [activator, partial curve]"}, {"smiles": "COCc1cc(=O)n2[nH]c(-c3ccccc3)cc2n1", "activity change, negative = inhibition": "inactive: 10.7%"}, {"smiles": "c1ccc(-c2nnc3sc(Cc4cccs4)nn23)cc1", "Potency": "inconclusive: 29.1 µM [activator, single point]"}, {"smiles": "O=C(Cn1c(=O)oc2ccccc21)N1CCCCC1", "Potency": "inconclusive: 0.794 µM [activator, full curve, poor fit]"}, {"smiles": "CCC1(c2ccccc2)NC(=O)N(CC(=O)N(C)CC(=O)Nc2ccc(F)c(F)c2F)C1=O", "note": "(stereo not given)", "activity change, negative = inhibition": "inactive: 3%"}, {"smiles": "O=C(NCc1ccco1)c1ccc(Br)c(S(=O)(=O)N2CCCCC2)c1", "Potency": "inconclusive: 16.4 µM [inhibitor, partial curve, poor fit]"}, {"smiles": "CC(=O)Nc1ccc(NC(=O)CN(c2ccc(C34CC5CC(CC(C5)C3)C4)cc2)S(C)(=O)=O)cc1", "Potency": "inconclusive: 13 µM [inhibitor, partial curve]"}, {"smiles": "Cc1ccc(C2C3=C(CC(C)(C)CC3=O)N=C3c4ccccc4C(=O)C32)cc1", "note": "(stereo not given)", "Potency": "inconclusive: 20.6 µM [inhibitor, single point]"}, {"smiles": "Cc1cc(OCC(O)CNC(C)c2ccccc2)ccc1C(C)C", "note": "(stereo not given)", "Potency": "inconclusive: 22.4 µM [inhibitor, single point]"}, {"smiles": "CCCc1cc(=O)oc2c3c(ccc12)OCN(Cc1ccccc1OC)C3", "activity change, negative = inhibition": "inactive: 14.5% [at 46.1 µM]"}, {"smiles": "CSc1ccc(CNC(=O)C(C)n2nc(C)c3c(C)n(-c4ccccc4)nc3c2=O)cc1", "note": "(stereo not given)", "Potency": "inconclusive: 6.31 µM [inhibitor, partial curve, poor fit]"}, {"smiles": "COCC(C)NC(=O)c1ccccc1[N+](=O)[O-]", "note": "(stereo not given)", "Potency": "inconclusive: 0.0291 µM [inhibitor, full curve, poor fit]"}, {"smiles": "O=C(CN1C(=O)NC(Cc2c[nH]c3ccccc23)C1=O)Nc1cccc(S(=O)(=O)N2CCCC2)c1", "note": "(stereo not given)", "activity change, negative = inhibition": "inactive: -7.76%"}, {"smiles": "O=c1c2sc3ccccc3c2n(Cc2cccc(F)c2)c(=O)n1CCc1ccccc1", "Potency": "inconclusive: 25.1 µM [activator, partial curve, poor fit]"}, {"smiles": "COc1ccc(C(=O)ON=C2c3ccccc3-c3ccccc32)cc1OC", "activity change, negative = inhibition": "inactive: 21.5%"}, {"smiles": "Cc1ccc(C(=O)NCCSC(C)(C)C)cc1", "Potency": "active: 10 µM"}, {"smiles": "CCOC(=O)NC(C(Cl)(Cl)Cl)S(=O)(=O)c1ccccc1", "note": "(stereo not given)", "Potency": "inconclusive: 7.94 µM [inhibitor, partial curve]"}, {"smiles": "Cc1ccc(/C=N/Nc2ccc3ccccc3n2)o1", "Potency": "active: 5.01 µM"}, {"smiles": "COc1ccc(/C=N/NC(=O)CNC(=O)c2ccc(S(=O)(=O)N3CCOCC3)cc2)c(OC)c1", "Potency": "inconclusive: 35.5 µM [inhibitor, single point]"}, {"smiles": "Cc1cc(C)c(C)c(N=Nc2nc3ccccc3n2C)c1C", "Potency": "inconclusive: 35.5 µM [inhibitor, single point]"}, {"smiles": "Cc1ccnc(NC(=O)Nc2ccc3c(c2)N(C)C(=O)CS3)c1", "Potency": "inconclusive: 1.16 µM [activator, full curve, poor fit]"}, {"smiles": "Cn1c(=O)c2c(nc(Sc3ncccn3)n2Cc2ccccc2Cl)n(C)c1=O", "activity change, negative = inhibition": "inactive: -28.3%"}, {"smiles": "CC(=O)Oc1ccc2c(C)c(CC(=O)N3CCN(C(=O)C4COc5ccccc5O4)CC3)c(=O)oc2c1C", "note": "(stereo not given)", "Potency": "inconclusive: 17.8 µM [inhibitor, partial curve]"}, {"smiles": "CN(C)c1ccc(-c2nnn(CC(=O)Nc3ccccc3N3CCOCC3)n2)cc1", "Potency": "inconclusive: 32.6 µM [inhibitor, partial curve, poor fit]"}, {"smiles": "COc1ccc(Oc2cc(C)c3ccccc3n2)cc1", "activity change, negative = inhibition": "inactive: 18.7%"}, {"smiles": "CS(=O)(=O)N(CC(=O)Nc1ccc2c(c1)OCO2)c1ccc(Cl)cc1", "activity change, negative = inhibition": "inactive: -0.539%"}, {"smiles": "O=C(Nc1ccc2c(c1)oc1ccccc12)c1ccc2c(c1)OCO2", "activity change, negative = inhibition": "inactive: 3.31%"}, {"smiles": "NC(=O)c1ccc(-n2nnnc2SCC(=O)NC2CCCCC2)cc1", "activity change, negative = inhibition": "inactive: 5.26% [at 46.1 µM]"}, {"smiles": "Cc1sc(NC(=O)c2ccc(Br)s2)c(C(N)=O)c1C", "Potency": "inconclusive: 0.073 µM [activator, partial curve, poor fit]"}, {"smiles": "Cc1cccc(C)c1N1CCN(C(=O)N2CCCCC2)CC1", "Potency": "inconclusive: 28.2 µM [activator, single point]"}, {"smiles": "CCCCOc1nc(N2CCOCC2)nc(C)c1[N+](=O)[O-]", "Potency": "inconclusive: 31.6 µM [inhibitor, partial curve, poor fit]"}, {"smiles": "O=C(N/N=C/c1c(Cl)[nH]c2ccccc12)c1sc2ccccc2c1Cl", "Potency": "inconclusive: 35.5 µM [inhibitor, single point]"}, {"smiles": "CCOc1ccc(CNC(=O)c2oc3c(c2C)-c2nn(Cc4cccc(Cl)c4)cc2CC3)cc1", "activity change, negative = inhibition": "inactive: 0.0714% [at 46.1 µM]"}, {"smiles": "CCn1ncc(N(C)N)c(Cl)c1=O", "activity change, negative = inhibition": "inactive: 11.1% [at 46.1 µM]"}, {"smiles": "O=C(NCC1CCCO1)c1cccc(Br)c1", "note": "(stereo not given)", "Potency": "inconclusive: 8.2 µM [activator, partial curve]"}, {"smiles": "COc1ccc(N(CC(=O)Nc2ccc3c(c2)OCO3)S(=O)(=O)c2ccc(F)cc2)cc1", "activity change, negative = inhibition": "inactive: -9.14%"}, {"smiles": "Cc1ccc(NC(=O)Cc2nnc(SCC(=O)NC3=NCCS3)n2C)cc1", "Potency": "inconclusive: 2.82 µM [inhibitor, partial curve, poor fit]"}, {"smiles": "O=C(Nc1ccccn1)c1ccc(-c2ccccc2)cc1", "Potency": "inconclusive: 1.26 µM [inhibitor, full curve, poor fit]"}, {"smiles": "COc1ccccc1CCNC(=O)Cc1c(C)c2cc(Cl)c(O)cc2oc1=O", "activity change, negative = inhibition": "inactive: -2.13% [at 46.1 µM]"}, {"smiles": "CCN(CC(O)CON=C1c2ccccc2-c2ccccc21)S(=O)(=O)c1ccc(C)cc1", "note": "(stereo not given)", "Potency": "inconclusive: 0.501 µM [inhibitor, full curve]"}, {"smiles": "CCCCn1c(NC(=O)c2ccccc2)nc2ccccc21", "Potency": "inconclusive: 16.4 µM [inhibitor, single point]"}, {"smiles": "CCOC(=O)c1ccc(N2C(=O)c3n[nH]c(-c4ccco4)c3C2c2ccc(C(=O)OC)cc2)cc1", "note": "(stereo not given)", "Potency": "inconclusive: 11.2 µM [inhibitor, partial curve, poor fit]"}, {"smiles": "O=C(NNc1ccccc1Cl)C(O)(c1cccc(C(F)(F)F)c1)c1cccc(C(F)(F)F)c1", "Potency": "inconclusive: 29.1 µM [inhibitor, single point] and inconclusive: 10 µM [inhibitor, partial curve, poor fit]"}, {"smiles": "CCCCCCC(=O)Nc1ccc2nc3c(=O)n(C)c(=O)n(C)c3nc2c1C", "activity change, negative = inhibition": "inactive: 11.2% [at 46.1 µM]"}, {"smiles": "CCCCCCn1c(O)c(/C=N/N2CCCCCC2)c(=O)[nH]c1=O", "Potency": "inconclusive: 1.41 µM [inhibitor, full curve, poor fit]"}, {"smiles": "CCCc1cnc2c(c1SCC(=O)NCc1ccc(C)cc1)c(=O)n(C)c(=O)n2C", "Potency": "inconclusive: 35.5 µM [inhibitor, single point]"}]}]}
